Results: the supplement of paper PMC12819154, “High-throughput peptide-centric local stability assay extends protein–ligand identification to membrane proteins, tissues and bacteria” (Nature Structural & Molecular Biology, 2025)
Some of the results follow. Most values lie at the level of the controls, where differences are scatter.

Chains of the proteins cited; added tags and fusions are not shown. Lines headed by an entry give the natural chain unless they say otherwise; changes in a name come on top.
UniProt Q99JT1: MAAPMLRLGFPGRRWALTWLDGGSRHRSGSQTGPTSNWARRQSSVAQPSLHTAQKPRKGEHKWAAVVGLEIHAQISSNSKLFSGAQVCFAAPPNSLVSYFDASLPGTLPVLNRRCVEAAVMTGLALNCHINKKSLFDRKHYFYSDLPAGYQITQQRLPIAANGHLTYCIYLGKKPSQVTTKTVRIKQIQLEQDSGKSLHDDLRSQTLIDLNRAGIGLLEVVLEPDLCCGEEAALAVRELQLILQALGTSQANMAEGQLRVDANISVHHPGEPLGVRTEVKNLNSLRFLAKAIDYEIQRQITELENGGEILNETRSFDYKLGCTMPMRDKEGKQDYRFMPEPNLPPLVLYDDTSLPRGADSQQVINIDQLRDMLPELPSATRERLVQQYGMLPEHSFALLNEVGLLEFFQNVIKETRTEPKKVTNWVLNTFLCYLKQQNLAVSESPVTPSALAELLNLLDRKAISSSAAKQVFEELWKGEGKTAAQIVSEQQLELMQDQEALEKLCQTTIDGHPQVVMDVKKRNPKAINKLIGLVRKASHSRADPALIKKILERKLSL
UniProt Q99JF8: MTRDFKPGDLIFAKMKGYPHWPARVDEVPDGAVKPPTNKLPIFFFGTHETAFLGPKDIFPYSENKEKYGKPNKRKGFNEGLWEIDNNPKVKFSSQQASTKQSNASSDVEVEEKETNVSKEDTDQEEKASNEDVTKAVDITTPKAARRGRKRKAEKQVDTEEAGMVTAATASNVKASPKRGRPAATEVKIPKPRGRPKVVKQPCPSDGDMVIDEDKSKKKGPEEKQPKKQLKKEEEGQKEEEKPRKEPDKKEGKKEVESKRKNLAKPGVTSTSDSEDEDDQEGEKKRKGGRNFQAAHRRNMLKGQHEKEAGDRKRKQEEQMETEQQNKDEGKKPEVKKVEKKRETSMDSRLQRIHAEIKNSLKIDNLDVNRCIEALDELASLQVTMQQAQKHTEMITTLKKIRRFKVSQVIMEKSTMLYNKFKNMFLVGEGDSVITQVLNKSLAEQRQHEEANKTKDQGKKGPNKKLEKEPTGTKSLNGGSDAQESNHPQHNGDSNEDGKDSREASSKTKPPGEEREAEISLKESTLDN
UniProt Q99KP3: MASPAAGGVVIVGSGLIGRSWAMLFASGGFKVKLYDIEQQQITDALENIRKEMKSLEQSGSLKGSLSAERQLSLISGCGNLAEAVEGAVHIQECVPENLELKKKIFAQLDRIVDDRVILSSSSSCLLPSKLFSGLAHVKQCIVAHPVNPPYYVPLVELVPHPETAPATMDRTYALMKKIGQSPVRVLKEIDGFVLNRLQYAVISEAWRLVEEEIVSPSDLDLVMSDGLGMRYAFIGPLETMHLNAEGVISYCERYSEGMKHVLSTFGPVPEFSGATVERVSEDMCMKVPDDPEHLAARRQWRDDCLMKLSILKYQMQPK
UniProt Q924K8: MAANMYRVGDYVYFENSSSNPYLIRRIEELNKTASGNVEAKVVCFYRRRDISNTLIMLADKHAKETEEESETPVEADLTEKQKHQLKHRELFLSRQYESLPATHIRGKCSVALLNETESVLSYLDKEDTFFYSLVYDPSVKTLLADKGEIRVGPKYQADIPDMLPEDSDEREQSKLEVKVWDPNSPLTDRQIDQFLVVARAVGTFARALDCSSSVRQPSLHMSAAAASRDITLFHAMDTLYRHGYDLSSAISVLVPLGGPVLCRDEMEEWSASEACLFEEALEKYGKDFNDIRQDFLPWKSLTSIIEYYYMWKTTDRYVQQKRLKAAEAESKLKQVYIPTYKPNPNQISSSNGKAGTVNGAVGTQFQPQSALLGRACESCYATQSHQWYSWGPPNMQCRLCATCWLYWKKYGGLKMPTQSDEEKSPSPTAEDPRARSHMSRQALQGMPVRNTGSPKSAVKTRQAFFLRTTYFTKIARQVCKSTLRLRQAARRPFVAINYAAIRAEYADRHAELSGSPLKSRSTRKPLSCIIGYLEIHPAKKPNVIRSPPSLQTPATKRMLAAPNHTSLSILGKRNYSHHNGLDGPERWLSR
UniProt Q99KK1: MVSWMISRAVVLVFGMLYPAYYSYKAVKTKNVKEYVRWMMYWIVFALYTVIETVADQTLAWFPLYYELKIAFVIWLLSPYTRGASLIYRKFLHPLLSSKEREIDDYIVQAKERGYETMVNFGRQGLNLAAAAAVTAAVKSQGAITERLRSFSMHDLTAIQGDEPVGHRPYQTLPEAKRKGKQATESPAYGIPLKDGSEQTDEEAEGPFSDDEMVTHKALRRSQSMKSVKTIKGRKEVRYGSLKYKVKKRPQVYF
UniProt Q924C6: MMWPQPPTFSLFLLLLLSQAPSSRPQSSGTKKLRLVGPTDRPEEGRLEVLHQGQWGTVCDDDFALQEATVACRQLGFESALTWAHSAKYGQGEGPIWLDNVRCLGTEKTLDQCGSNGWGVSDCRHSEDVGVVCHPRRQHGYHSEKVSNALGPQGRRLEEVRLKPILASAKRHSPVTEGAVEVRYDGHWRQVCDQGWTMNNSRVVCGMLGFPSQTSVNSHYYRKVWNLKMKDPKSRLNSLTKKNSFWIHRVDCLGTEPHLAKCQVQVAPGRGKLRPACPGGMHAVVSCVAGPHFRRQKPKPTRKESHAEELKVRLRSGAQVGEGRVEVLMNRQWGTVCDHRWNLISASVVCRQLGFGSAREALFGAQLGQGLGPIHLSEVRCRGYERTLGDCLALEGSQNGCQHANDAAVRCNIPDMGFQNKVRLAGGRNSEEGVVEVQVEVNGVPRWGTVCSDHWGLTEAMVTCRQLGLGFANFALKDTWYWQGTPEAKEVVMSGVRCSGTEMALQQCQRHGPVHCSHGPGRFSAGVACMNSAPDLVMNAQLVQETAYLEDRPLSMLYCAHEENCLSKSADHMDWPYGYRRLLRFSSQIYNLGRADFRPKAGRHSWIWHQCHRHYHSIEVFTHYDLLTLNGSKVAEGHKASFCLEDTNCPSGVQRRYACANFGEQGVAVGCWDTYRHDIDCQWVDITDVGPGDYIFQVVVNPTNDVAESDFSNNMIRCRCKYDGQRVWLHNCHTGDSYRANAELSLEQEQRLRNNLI
UniProt Q921R4: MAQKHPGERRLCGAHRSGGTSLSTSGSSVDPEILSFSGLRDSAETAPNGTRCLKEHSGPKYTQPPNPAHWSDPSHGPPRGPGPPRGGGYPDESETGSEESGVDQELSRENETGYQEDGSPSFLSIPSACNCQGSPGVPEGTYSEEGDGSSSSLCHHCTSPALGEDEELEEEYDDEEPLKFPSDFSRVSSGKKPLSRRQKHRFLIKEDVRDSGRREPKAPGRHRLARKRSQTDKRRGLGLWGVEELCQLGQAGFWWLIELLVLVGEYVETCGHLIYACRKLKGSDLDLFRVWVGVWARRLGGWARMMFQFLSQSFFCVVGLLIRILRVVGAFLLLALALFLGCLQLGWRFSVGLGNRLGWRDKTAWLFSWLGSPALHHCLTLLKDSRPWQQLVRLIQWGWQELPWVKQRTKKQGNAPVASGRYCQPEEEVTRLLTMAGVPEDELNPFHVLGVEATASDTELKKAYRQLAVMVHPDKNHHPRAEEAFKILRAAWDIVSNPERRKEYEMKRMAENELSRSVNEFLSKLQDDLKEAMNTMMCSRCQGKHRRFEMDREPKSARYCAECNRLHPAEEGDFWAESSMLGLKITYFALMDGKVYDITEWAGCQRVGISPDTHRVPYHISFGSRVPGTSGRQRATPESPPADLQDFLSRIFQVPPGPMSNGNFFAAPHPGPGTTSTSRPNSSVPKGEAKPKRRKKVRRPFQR
UniProt Q99J45: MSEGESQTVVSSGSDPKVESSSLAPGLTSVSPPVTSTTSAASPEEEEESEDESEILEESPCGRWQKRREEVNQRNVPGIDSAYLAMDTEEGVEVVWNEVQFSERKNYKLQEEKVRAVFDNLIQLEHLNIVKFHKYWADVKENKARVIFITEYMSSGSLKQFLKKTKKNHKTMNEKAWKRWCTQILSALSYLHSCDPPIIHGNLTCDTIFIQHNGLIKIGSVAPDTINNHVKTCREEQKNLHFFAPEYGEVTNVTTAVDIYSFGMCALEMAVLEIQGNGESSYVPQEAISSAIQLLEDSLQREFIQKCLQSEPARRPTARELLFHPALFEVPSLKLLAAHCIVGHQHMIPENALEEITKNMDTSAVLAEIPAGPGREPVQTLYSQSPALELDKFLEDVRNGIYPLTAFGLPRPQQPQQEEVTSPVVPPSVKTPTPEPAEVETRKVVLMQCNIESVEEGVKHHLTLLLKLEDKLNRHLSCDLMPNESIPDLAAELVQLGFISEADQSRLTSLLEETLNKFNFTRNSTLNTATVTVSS
UniProt Q99KR3: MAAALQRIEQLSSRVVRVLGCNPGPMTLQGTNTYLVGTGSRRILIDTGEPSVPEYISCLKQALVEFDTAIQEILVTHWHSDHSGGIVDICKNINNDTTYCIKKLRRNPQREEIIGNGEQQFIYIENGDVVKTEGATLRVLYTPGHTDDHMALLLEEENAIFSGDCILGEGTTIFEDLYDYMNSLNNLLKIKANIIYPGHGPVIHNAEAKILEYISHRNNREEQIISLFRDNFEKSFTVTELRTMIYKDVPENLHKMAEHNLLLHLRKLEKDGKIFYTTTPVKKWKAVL
UniProt Q922R0: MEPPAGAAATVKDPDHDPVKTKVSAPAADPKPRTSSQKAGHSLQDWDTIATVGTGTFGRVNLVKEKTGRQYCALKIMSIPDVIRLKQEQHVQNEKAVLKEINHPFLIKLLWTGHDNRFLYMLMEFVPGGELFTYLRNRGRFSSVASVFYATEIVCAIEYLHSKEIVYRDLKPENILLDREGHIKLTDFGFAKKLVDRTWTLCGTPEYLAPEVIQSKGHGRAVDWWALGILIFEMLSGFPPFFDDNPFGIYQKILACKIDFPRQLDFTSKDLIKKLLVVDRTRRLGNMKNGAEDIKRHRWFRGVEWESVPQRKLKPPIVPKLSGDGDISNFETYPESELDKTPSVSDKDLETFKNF
UniProt Q921F2, whole entry: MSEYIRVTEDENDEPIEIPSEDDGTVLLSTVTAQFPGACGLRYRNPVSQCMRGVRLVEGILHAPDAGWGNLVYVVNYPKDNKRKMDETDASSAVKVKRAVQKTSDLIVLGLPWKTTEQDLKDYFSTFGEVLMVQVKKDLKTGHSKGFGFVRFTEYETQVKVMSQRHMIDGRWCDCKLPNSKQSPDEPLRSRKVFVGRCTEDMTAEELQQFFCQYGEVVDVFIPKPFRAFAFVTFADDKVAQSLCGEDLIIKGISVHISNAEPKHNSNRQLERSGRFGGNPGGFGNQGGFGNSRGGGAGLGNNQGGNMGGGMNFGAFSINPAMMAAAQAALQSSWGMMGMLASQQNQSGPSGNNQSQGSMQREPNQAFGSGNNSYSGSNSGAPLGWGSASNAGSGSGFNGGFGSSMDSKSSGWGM
UniProt Q923M0: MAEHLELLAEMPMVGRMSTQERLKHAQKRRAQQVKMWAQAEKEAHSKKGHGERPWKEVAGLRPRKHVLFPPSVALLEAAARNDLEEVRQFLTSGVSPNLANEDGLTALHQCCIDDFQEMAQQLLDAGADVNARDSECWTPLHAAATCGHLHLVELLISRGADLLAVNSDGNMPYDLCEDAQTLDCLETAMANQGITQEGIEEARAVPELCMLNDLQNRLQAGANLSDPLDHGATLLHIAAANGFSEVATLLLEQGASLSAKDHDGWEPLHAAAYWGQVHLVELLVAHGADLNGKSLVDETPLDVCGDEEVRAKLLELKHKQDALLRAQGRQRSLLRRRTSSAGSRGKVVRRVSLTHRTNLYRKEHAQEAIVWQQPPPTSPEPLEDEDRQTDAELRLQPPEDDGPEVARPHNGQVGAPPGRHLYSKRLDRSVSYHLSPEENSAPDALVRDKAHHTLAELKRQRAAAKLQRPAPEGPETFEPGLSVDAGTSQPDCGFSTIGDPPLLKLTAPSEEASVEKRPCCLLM
UniProt Q99KU1: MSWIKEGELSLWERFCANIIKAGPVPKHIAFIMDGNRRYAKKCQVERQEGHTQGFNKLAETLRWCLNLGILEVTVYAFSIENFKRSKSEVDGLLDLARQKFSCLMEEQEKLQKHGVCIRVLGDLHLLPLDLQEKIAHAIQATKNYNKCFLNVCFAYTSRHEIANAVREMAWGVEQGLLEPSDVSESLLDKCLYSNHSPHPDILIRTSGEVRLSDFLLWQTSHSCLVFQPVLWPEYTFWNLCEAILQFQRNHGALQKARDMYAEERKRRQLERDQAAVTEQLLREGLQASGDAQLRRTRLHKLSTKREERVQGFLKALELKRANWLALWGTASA
UniProt Q922R1: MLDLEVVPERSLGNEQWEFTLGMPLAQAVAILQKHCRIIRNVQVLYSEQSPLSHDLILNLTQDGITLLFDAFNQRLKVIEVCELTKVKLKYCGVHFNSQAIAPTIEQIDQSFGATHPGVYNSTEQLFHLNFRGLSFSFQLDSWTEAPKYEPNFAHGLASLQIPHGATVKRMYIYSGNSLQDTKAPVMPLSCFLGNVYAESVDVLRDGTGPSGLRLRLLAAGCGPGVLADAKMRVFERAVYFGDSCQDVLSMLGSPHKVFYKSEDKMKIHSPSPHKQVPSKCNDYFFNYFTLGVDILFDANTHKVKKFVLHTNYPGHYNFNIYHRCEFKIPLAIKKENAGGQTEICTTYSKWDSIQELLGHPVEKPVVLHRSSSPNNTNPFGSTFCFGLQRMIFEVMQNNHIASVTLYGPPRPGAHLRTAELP

The targets below were run with CN[C@@H]1C[C@H]2O[C@@](C)([C@@H]1OC)n1c3ccccc3c3c4c(c5c6ccccc6n2c5c31)C(=O)NC4 [staurosporine] (assay: log2 fold change of tryptic peptide abundance, ligand vs vehicle (limited proteolysis) (log2 ratio); higher = more trypsin-susceptible (destabilized)). Details: ligand concentration: 20 uM; sample: mouse liver crude lysate; replicate design: treated separately.
With “UniProt Q99J78 (peptide sequence: QAIEECK, peptide start residue: 84)” the log2 fold change was -0.261.
Target “UniProt Q99JT1 (peptide sequence: ETRTEPKK, peptide start residue: 414)” has a log2 fold change of 0.252.
In the case of “UniProt Q99JF8 (peptide sequence: EEEGQKEEEKPR, peptide start residue: 233)”, the log2 fold change is reported as -0.887.
“UniProt Q99KG7 (peptide sequence: SPDSPGPSPSADR, peptide start residue: 475)” was tested, and the log2 fold change was -0.505.
“UniProt Q99KP3 (peptide sequence: VSEDMCMKVPDDPEHLAAR, peptide start residue: 280)” showed a log2 fold change of 0.218.
“UniProt Q924K8 (peptide sequence: NYSHHNGLDGPER, peptide start residue: 575)” showed a log2 fold change of 0.254.
With “UniProt Q925B0 (peptide sequence: AKQNPAGPGSSGGDPAAK, peptide start residue: 29)” the log2 fold change was -0.273.
“UniProt Q99L88 (peptide sequence: GSGTGHPVPGVAQAPDSPAGVR, peptide start residue: 70)” was tested, and the log2 fold change was -0.207.
With “UniProt Q99KK1 (peptide sequence: KRPQVYF, peptide start residue: 248)” the log2 fold change was 0.11.
“UniProt Q924C6 (peptide sequence: QLGFESALTWAHSAK, peptide start residue: 74)” was tested, and the log2 fold change was 0.238.
“UniProt Q921R4 (peptide sequence: DSAETAPNGTR, peptide start residue: 41)” showed a log2 fold change of -0.0168.
“UniProt Q923B6 (peptide sequence: SDIIILAMHR, peptide start residue: 74)” showed a log2 fold change of -0.747.
Work on “UniProt Q99J45 (peptide sequence: TPTPEPAEVETR, peptide start residue: 431)” yielded a log2 fold change of -0.201.
Work on “UniProt Q921F4 (peptide sequence: LCFSTSSHL, peptide start residue: 583)” yielded a log2 fold change of 0.0983.
For “UniProt Q99LG1 (peptide sequence: AETETSPGHAPDRQNSK, peptide start residue: 173)”, the log2 fold change was -0.332.
“UniProt Q99KR3 (peptide sequence: MAEHNLLLHLR, peptide start residue: 256)” showed a log2 fold change of 0.104.
Work on “UniProt Q924T2 (peptide sequence: GSEGSGTSPVPDKSHSP, peptide start residue: 275)” yielded a log2 fold change of 0.102.
Work on “UniProt Q922R0 (peptide sequence: VSAPAADPKPR, peptide start residue: 23)” yielded a log2 fold change of -0.31.
Work on “UniProt Q924M7 (peptide sequence: VKNTFNGKLPFLFK, peptide start residue: 86)” yielded a log2 fold change of -0.361.
For “UniProt Q99LE1 (peptide sequence: FTLQELR, peptide start residue: 297)”, the log2 fold change was 0.146.
Work on “UniProt Q921F2 (peptide sequence: FTEYETQVK, peptide start residue: 152)” yielded a log2 fold change of 0.183.
For “UniProt Q99LF4 (peptide sequence: GLGHQVATDALVAMEK, peptide start residue: 264)”, the log2 fold change was -0.132.
With “UniProt Q99K99 (peptide sequence: LKGTQNSEVEVPR, peptide start residue: 41)” the log2 fold change was -0.16.
“UniProt Q923M0 (peptide sequence: DKAHHTLAELKR, peptide start residue: 449)” gave a log2 fold change of -0.447.
In the case of “UniProt Q925P2 (peptide sequence: DLTEHKPSASNHNLAPSDNSPNK, peptide start residue: 459)”, the log2 fold change is reported as 0.411.
“UniProt Q99KU1 (peptide sequence: DQAAVTEQLLR, peptide start residue: 273)” showed a log2 fold change of 0.392.
In the case of “UniProt Q922R1 (peptide sequence: MLDLEVVPER, peptide start residue: 1)”, the log2 fold change is reported as -0.364.
“UniProt Q91ZW3 (peptide sequence: LLTQGFTNWNKR, peptide start residue: 836)” was tested, and the log2 fold change was 0.341.
With “UniProt Q923D4 (peptide sequence: YIGTGHADTTK, peptide start residue: 18)” the log2 fold change was -0.359.
